Source: the supplement of paper PMC6445147
Values scatter widely in this assay.

B1: human tRNA-Pro; a variant is named by its letters at N, in order (parent)
chain: GGCTCGTTGGTCTAGNGGTATGATTCTCGCTTAGGGTGCGAGAGGTCCCGGGTTCNNATCCCGGACGAGCCC

Variants of: B1
Assay: tRNA 5' processing efficiency (processed reads / all reads, maximum-likelihood estimate) (fraction); higher = more efficient 5' processing
Conditions: HEK293T; construct: CMV Pol-II promoter ((+)CMV library, decapped)
With GGCTCGTTGGTCTAGAGGTATGATTCTCGCTTAGGGTGCGAGAGGTCCCGGGATCCTAACCCGGACGAGCCC [ACT T53A T59A] the “tRNA 5' processing efficiency” value was 0.14. For GGCTCGTTCGTCTACGGGTATGATTCTCGCTTAGGGTGCGAGAGGTCCCGGGTTCGAATCCCGGACGAGCCC [GGA G9C G15C], the “tRNA 5' processing efficiency” value was 0.33. For GGCTCGTAGGTCTAGGGGTATGATTCTCGCTTAGGGTGCGAGAGGTCCCGGGTTTCAATCCCGGACGAGCCC [GCA T8A C55T], the “tRNA 5' processing efficiency” value was 0.4. In the case of GGCTCGTTAGTCTATGTGTATGATTCTCGCTTAGGGTGCGAGAGGTCCCGGGTTCCCGTCCCGGACGAGCCC [GCC G9A G15T G17T A58G], the “tRNA 5' processing efficiency” value is reported as 0.33. With GGCTCGTTGGTCTAGGGGAATGATTCTCGCTTAGGGTGCGAGAGGTCCCGGGATCGAATCCCGGACGAGCCC [GGA T19A T53A] the “tRNA 5' processing efficiency” value was 0.2. For GGCTCGTTGGTCTGGGGGCTTGATTCTCGCTTAGGGTGCGAGAGGTCCCGGGTTCGAATCCCGGACGAGCCC [GGA A14G T19C A20T], the “tRNA 5' processing efficiency” value was 0.17. In the case of GGCTCGTTGGTCTAGGGTTATGATTCTCGCTTAGGGTGCGAGAGGTCCCGGGATCGAATCCCGGACGAGCCC [GGA G18T T53A], the “tRNA 5' processing efficiency” value is reported as 0.38. With GGCTCGTTGGTCTGGGGCTATGATTCTCGCTTAGGGTGCGAGAGGTCCCGGGTTTCTATCCCGGACGAGCCC [GCT A14G G18C C55T] the “tRNA 5' processing efficiency” value was 0.33. In the case of GGCTCGTTGGTCTAAGGGTATGATTCTCGCTTAGGGTGCGAGAGGTCCCGGGTGCGAATCCCGGACGAGCCC [GGA G15A T54G], the “tRNA 5' processing efficiency” value is reported as 0.2. For GGCTCGTTGGTCTAGGGGTATGATTCTCGCTTAGGGTGCGAGAGGTCCCGGGTATCACTCCCGGACGAGCCC [GCA T54A C55T A58C], the “tRNA 5' processing efficiency” value was 0.25. With GGCTCGTTCGTCTTGTGGTATGATTCTCGCTTAGGGTGCGAGAGGTCCCGGGTGCGAATCCCGGACGAGCCC [TGA G9C A14T T54G] the “tRNA 5' processing efficiency” value was 0.6. In the case of GGCTCGTTGGTCTCGGGGAATGATTCTCGCTTAGGGTGCGAGAGGTCCCGGGTTAGAGCCCCGGACGAGCCC [GGA A14C T19A C55A A58G T59C], the “tRNA 5' processing efficiency” value is reported as 0.25. For GGCTCGTTCGTCTAGAGGTTTGATTCTCGCTTAGGGTGCGAGAGGTCCCGGGGTCGAATCCCGGACGAGCCC [AGA G9C A20T T53G], the “tRNA 5' processing efficiency” value was 0.14. With GGCTCGTTGGTCTATGGGTATGATTCTCGCTTAGGGTGCGAGAGGTCCCGGGTTCGATTCCCGGACGAGCCC [GGA G15T A58T] the “tRNA 5' processing efficiency” value was 0.4. In the case of GGCTCGTTGGTCTAGGTGTATGATTCTCGCTTAGGGTGCGAGAGGTCCCGGGCTGGAACCCCGGACGAGCCC [GGA G17T T53C C55G T59C], the “tRNA 5' processing efficiency” value is reported as 0.25. With GGCTCGTTGGTCTAGGGGTCTGATTCTCGCTTAGGGTGCGAGAGGTCCCGGGTTGGAATCCCGGACGAGCCC [GGA A20C C55G] the “tRNA 5' processing efficiency” value was 0.2. With GGCTCGTTTGTCTGGGGGTATGATTCTCGCTTAGGGTGCGAGAGGTCCCGGGTTCGAATCCCGGACGAGCCC [GGA G9T A14G] the “tRNA 5' processing efficiency” value was 0.25. For GGCTCGTTGGTCTATGGGTATGATTCTCGCTTAGGGTGCGAGAGGTCCCGGGCTCGAATCCCGGACGAGCCC [GGA G15T T53C], the “tRNA 5' processing efficiency” value was 0.25. In the case of GGCTCGTTGGTCTAGGGGTATGATTCTCGCTTAGGGTGCGAGAGGTCCCGGGTGCCAATCCCGGACGAGCCC [GCA T54G], the “tRNA 5' processing efficiency” value is reported as 0.25. For GGCTCGTAGGTCTCGGCGTATGATTCTCGCTTAGGGTGCGAGAGGTCCCGGGTTCCAGTCCCGGACGAGCCC [GCA T8A A14C G17C A58G], the “tRNA 5' processing efficiency” value was 0.2. With GGCTCGTTGGTCTAGGTGTATGATTCTCGCTTAGGGTGCGAGAGGTCCCGGGTTGGAAACCCGGACGAGCCC [GGA G17T C55G T59A] the “tRNA 5' processing efficiency” value was 0.25. In the case of GGCTCGTTGGTCTAGAGGGATGATTCTCGCTTAGGGTGCGAGAGGTCCCGGGTTCGAATCCCGGACGAGCCC [AGA T19G], the “tRNA 5' processing efficiency” value is reported as 0.33. For GGCTCGTTGGTCTAGAGGAATGATTCTCGCTTAGGGTGCGAGAGGTCCCGGGTTCGAATCCCGGACGAGCCC [AGA T19A], the “tRNA 5' processing efficiency” value was 0.14. For GGCTCGTGTGTCTAATGGTATGATTCTCGCTTAGGGTGCGAGAGGTCCCGGGTTTCAACCCCGGACGAGCCC [TCA T8G G9T G15A C55T T59C], the “tRNA 5' processing efficiency” value was 0.33. With GGCTCGTAGGTCTGGGGGTATGATTCTCGCTTAGGGTGCGAGAGGTCCCGGGATCCAATCCCGGACGAGCCC [GCA T8A A14G T53A] the “tRNA 5' processing efficiency” value was 0.33. In the case of GGCTCGTGTGTCTAGAGGTATGATTCTCGCTTAGGGTGCGAGAGGTCCCGGGCTTGAATCCCGGACGAGCCC [AGA T8G G9T T53C C55T], the “tRNA 5' processing efficiency” value is reported as 0.33. In the case of GGCTCGTTAGTCTAGTGGTCTGATTCTCGCTTAGGGTGCGAGAGGTCCCGGGATCGAATCCCGGACGAGCCC [TGA G9A A20C T53A], the “tRNA 5' processing efficiency” value is reported as 0.33. In the case of GGCTCGTTGGTCTAGGGGCATGATTCTCGCTTAGGGTGCGAGAGGTCCCGGGGTCCAATCCCGGACGAGCCC [GCA T19C T53G], the “tRNA 5' processing efficiency” value is reported as 0.2. For GGCTCGTTGGTCTATGGGTATGATTCTCGCTTAGGGTGCGAGAGGTCCCGGGATCGACTCCCGGACGAGCCC [GGA G15T T53A A58C], the “tRNA 5' processing efficiency” value was 0.04. For GGCTCGTTGGTCTAGAGGAATGATTCTCGCTTAGGGTGCGAGAGGTCCCGGGGTCCAATCCCGGACGAGCCC [ACA T19A T53G], the “tRNA 5' processing efficiency” value was 0.25. For GGCTCGTTTGTCTCGCTGTATGATTCTCGCTTAGGGTGCGAGAGGTCCCGGGTTGGAATCCCGGACGAGCCC [CGA G9T A14C G17T C55G], the “tRNA 5' processing efficiency” value was 0.07. With GGCTCGTTGGTCTCGGGTTCTGATTCTCGCTTAGGGTGCGAGAGGTCCCGGGTTAGAATCCCGGACGAGCCC [GGA A14C G18T A20C C55A] the “tRNA 5' processing efficiency” value was 0.17. In the case of GGCTCGTTGGTCTACGGTTATGATTCTCGCTTAGGGTGCGAGAGGTCCCGGGTTCGATTCCCGGACGAGCCC [GGA G15C G18T A58T], the “tRNA 5' processing efficiency” value is reported as 0.2. With GGCTCGTTGGTCTAGAGGTCTGATTCTCGCTTAGGGTGCGAGAGGTCCCGGGTTCGAATCCCGGACGAGCCC [AGA A20C] the “tRNA 5' processing efficiency” value was 0.17. In the case of GGCTCGTAGGTCTAGAGATATGATTCTCGCTTAGGGTGCGAGAGGTCCCGGGATCCAATCCCGGACGAGCCC [ACA T8A G18A T53A], the “tRNA 5' processing efficiency” value is reported as 0.2. With GGCTCGTTAGTCTATAGGTGTGATTCTCGCTTAGGGTGCGAGAGGTCCCGGGATCGAATCCCGGACGAGCCC [AGA G9A G15T A20G T53A] the “tRNA 5' processing efficiency” value was 0.25. With GGCTCGTTGGTCTACGGATATGATTCTCGCTTAGGGTGCGAGAGGTCCCGGGTTCGAATCCCGGACGAGCCC [GGA G15C G18A] the “tRNA 5' processing efficiency” value was 0.2.
